Earlier results, collected in US6586386B2, “Tablet of compacted particulate cleaning composition” (ISP Investments Inc., priority 2001, dated 2003).

Settings: grams of solid to form a saturated solution in 100 g of water at 20° C.

NC(N)=O [Urea]
Water Solubility: >100 g/100 g
